The data set is described as follows: Permeability test (Papp) across hiPSC-derived enterocyte-like cell monolayer. The format is in vitro ADME. The following applies: human, M3-2 medium, 37°C 2 h, n = 4. Here is the method:
The unlabeled compounds were analyzed by LC-MS/MS. […]
Permeability measurements
5 was determined as follows: the culture medium for hiPS-derived enterocyte-like cells was replaced with […]
started by replacing the FBS-containing HBSS buffer with substrate +/- inhibitor and incubated at 37°C for 2 h. The unlabeled compounds were analyzed by LC-MS/MS. The LC-MS/MS system consisted of a Waters ACQUITY UPLC (Waters Corporation, Milford, MA, USA) and a Waters Quattro Ultima mass spectrometer (Waters Corporation). The multiple reaction monitoring modes were used to monitor ions.
The detailed conditions for the analyses of the compounds are shown in Supplemental Table S1. The apparent membrane permeability coefficient (Papp) was calculated as follows. Papp ൌ ௗொௗ௧ ൈ ଵ஺஼బ Where dQ/dt is the amount of the compound permeated per unit of time, A is the surface area of insert membrane (0.33 cm2), and C0 is the initial compound concentration in the donor chamber. Differentiated cells showing TEER >30 Ω・cm2 were used. […]
100ൈቀ1െexp൫െα ൈP௔௣௣ ൯ቁ. Where α is the scaling factor. The fitting curve was calculated by nonlinear regression using Phoenix WinNonlin (Ver. 8.1, Certara, L.P.).

Like-named read-outs stand apart in the source and are kept apart here.

A word on the Papp: it is the rate of passage across a membrane or cell layer, normalised by area and donor concentration.

Consider `CC(C)NCC(O)COc1ccc(CC(N)=O)cc1` (centres unmarked) [atenolol], for which the Papp at 2 h is, setting by setting: (D30 of differentiation, read-out: RPChiPS771 d30 Papp Mean ± SD) 55.7 ± 35.4 nm/s; (day 23 of differentiation, read-out: RPChiPS771 d23 Papp Mean ± SD) 29 ± 4.8 nm/s.

For the origin of these results see publication PMC7878837, “Generation of Human-Induced Pluripotent Stem Cell-Derived Functional Enterocyte-Like Cells for Pharmacokinetic Studies” (Stem Cell Reports, 2021).
